Results taken from PubChem BioAssay AID1671190 (National Center for Advancing Translational Sciences (NCATS), 2021).
Screen size: about 580,000 compounds; about 6,100 (1.1%) were called active. The shares of active, inactive and inconclusive entries below differ from those in the screen. Calls come from the whole dose curve; as a rule, active = well fitted inhibition curve with a large enough effect; inconclusive = small, poorly fitted or top-dose-only effect, or another doubt; inactive = no such curve, though single readings can be large or run the other way. A potency beside an inconclusive call is a rough fit, not a confirmed value.
% is set by controls: 0 for no effect and ±100 for the full control effect; potency is the fitted concentration of half-maximal effect.

Chains of the proteins cited; added tags and fusions are not shown. Lines headed by an entry give the natural chain unless they say otherwise; changes in a name come on top.
UniProt P18054: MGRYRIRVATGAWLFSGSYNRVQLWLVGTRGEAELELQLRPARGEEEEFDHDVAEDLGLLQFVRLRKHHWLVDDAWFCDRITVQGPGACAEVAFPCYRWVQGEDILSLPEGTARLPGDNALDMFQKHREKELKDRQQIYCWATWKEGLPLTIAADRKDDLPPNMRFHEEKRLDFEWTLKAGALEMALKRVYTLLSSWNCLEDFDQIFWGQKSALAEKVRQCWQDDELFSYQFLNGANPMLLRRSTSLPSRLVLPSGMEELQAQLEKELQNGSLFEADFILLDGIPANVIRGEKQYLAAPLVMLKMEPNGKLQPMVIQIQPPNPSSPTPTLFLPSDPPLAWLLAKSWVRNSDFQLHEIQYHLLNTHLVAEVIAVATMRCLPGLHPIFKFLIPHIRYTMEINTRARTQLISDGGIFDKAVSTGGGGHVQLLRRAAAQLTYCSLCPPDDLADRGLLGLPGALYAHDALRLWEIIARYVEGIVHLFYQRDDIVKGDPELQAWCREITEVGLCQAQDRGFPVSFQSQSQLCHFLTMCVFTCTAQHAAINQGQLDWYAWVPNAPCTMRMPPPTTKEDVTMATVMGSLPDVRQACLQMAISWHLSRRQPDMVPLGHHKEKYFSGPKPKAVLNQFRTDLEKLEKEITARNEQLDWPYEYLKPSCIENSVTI

These molecules were tested against Polyunsaturated fatty acid lipoxygenase ALOX12 (Homo sapiens) (UniProt P18054) (assay: Primary qHTS assay for inhibitors of human arachidonate 12S-lipoxygenase (ALOX12): Round 2). Details: purified 12hLO, xylenol orange hydroperoxide absorbance; activity change, negative = inhibition: at 108 µM (top of the series) unless noted.
Procedure, shortened: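 Purified human 12hLO at 150 nM in 25 mM Hepes, 0.01% Triton X-100, pH 7.0, preincubated 15 min at room temperature with compound. Reaction started with 40 uM arachidonic acid, 30 min at room temperature. Hydroperoxide measured by Fe-xylenol orange, 573/405 nm absorbance ratio.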
In the case of `Cc1cccc(N=Nc2c(O)[nH]c3ccc(Br)cc23)c1`, the Potency is reported as inconclusive: 112 µM [inhibitor, single point].
In the case of `CC(C)NC(=O)C1CCc2sc(C(=O)N3CCCCCC3)cc2C1` (stereo not drawn), the “activity change, negative = inhibition” value is reported as inactive: 41.8%.
In the case of `O=C1C(CN2CCCC2)CCCC1CN1CCCC1` (stereo not drawn), the “activity change, negative = inhibition” value is reported as inactive: -2.78%.
With `CCn1c(-c2ccco2)n[nH]c1=S` the Potency was inconclusive: 44.7 µM [inhibitor, partial curve, poor fit].
With `O=C(O)COc1ccc(S(=O)(=O)N2CCCC2)cc1` the “activity change, negative = inhibition” value was inactive: -2.37%.
`CCOC(=O)c1c(C=O)c(C)n(Cc2ccc(Cl)cc2)c1C` was tested, and the Potency was inconclusive: 10 µM [inhibitor, partial curve, poor fit].
With `Cc1ccccc1Nc1c(-c2cccc(O)c2)nc2ccc(Br)cn12` the Potency was inconclusive: 89.1 µM [inhibitor, partial curve, poor fit].
With `O=C1C[C@@H]2c3c(cccc3CN1Cc1ccccc1Br)C[C@@H](O)[C@H]2O` the Potency was inconclusive: 126 µM [inhibitor, partial curve, poor fit].
`COc1ccc(NC2=C(NCCO)C(=O)c3ccccc3C2=O)cc1` was tested, and the Potency was inconclusive: 44.7 µM [inhibitor, partial curve, poor fit].
In the case of `CC1(C)CC(=O)C2=C(C1)Nc1cc(C(=O)c3ccccc3)ccc1NC2c1ccc(O)cc1` (stereo not drawn), the Potency is reported as inconclusive: 39.8 µM [inhibitor, partial curve, poor fit].
For `Cc1cccc(N2CCN(C(=O)c3cccc(N4C(=O)C5CC=CC(C)C5C4=O)c3)CC2)c1C` (stereo not drawn), the “activity change, negative = inhibition” value was inactive: -7.31%.
`Cn1c(=O)c(=O)n(C)c2cc(N3CCOCC3)c(NS(=O)(=O)c3ccc([N+](=O)[O-])cc3)cc21` was tested, and the Potency was inconclusive: 39.8 µM [inhibitor, partial curve, poor fit].
For `CS(=O)(=O)Nc1cccc(-c2cn3c(n2)SCC3)c1`, the Potency was inconclusive: 79.4 µM [inhibitor, partial curve, poor fit].
For `CN1C(=O)C2(CC(=O)Nc3c2sc(C(=O)O)c3-c2ccccc2)c2ccccc21` (stereo not drawn), the Potency was inconclusive: 35.5 µM [inhibitor, partial curve, poor fit].
With `COc1ccccc1-c1nc(NCc2cccs2)c2ccccc2n1` the Potency was inconclusive: 10 µM [inhibitor, full curve, poor fit].
`Cc1cc(NC(=O)c2ccc(C)c([N+](=O)[O-])c2)no1` was tested, and the “activity change, negative = inhibition” value was inactive: -1.54%.
`CCOc1ccc(CNC(=O)c2ccc3c(c2)sc2nc(-c4ccc(OC)cc4)cn23)cc1` was tested, and the “activity change, negative = inhibition” value was inactive: -29%.
`Cc1cc2c(n1-c1ccc(C(=O)NCC(C)c3ccccc3)cc1)CCCC2` (stereo not drawn) was tested, and the Potency was inconclusive: 79.4 µM [inhibitor, partial curve, poor fit].
In the case of `Cc1cccc(N2N=C(C(=O)Nc3ccc(S(=O)(=O)N4CCCCCC4)cc3)CCC2=O)c1`, the Potency is reported as inconclusive: 44.7 µM [inhibitor, partial curve, poor fit].
`COc1ccc(CN2CCN(Cc3ccc(C)cc3)CC2)c(OC)c1` was tested, and the Potency was inconclusive: 0.501 µM [inhibitor, full curve].
In the case of `CCC(C(=O)Nc1ccccc1OCc1cc(=O)n2cccc(C)c2n1)c1ccccc1` (stereo not drawn), the “activity change, negative = inhibition” value is reported as inactive: -4.33%.
For `CCN(C(=O)c1ccc(=O)n(C)n1)c1c(N)n(Cc2ccccc2)c(=O)[nH]c1=O`, the “activity change, negative = inhibition” value was inactive: 2.13%.
For `O=C(Cc1c[nH]c2ccccc12)Nc1nc2ccc(F)cc2s1`, the Potency was inconclusive: 44.7 µM [inhibitor, partial curve, poor fit].
With `CS(=O)(=O)Nc1cccc(-c2ccc3ncnc(Nc4ccc(F)cc4)c3c2)c1` the Potency was active: 17.8 µM.
In the case of `COC(=O)c1cc(C(=O)OC)cc(N2C(=O)CC(Sc3nc(C)cc(C)n3)C2=O)c1` (stereo not drawn), the “activity change, negative = inhibition” value is reported as inactive: -6.28%.
For `Cc1noc(C)c1-c1cc2c(c(-c3ccccc3)c1)C(=O)N(C)C2`, the Potency was inconclusive: 20 µM [inhibitor, full curve, poor fit].
In the case of `Cc1cc(OCc2nn[nH]n2)c2c(C)cc(=O)oc2c1`, the Potency is reported as inconclusive: 25.1 µM [inhibitor, partial curve, poor fit].
In the case of `CCN(CC)S(=O)(=O)c1cc(NC(=O)CSc2nc3c(cc2C#N)C(=O)CC(C)(C)C3)ccc1C`, the “activity change, negative = inhibition” value is reported as inactive: 12.9%.
With `Clc1ccc(Cc2nc(-c3ccc(Br)o3)no2)cc1` the Potency was inconclusive: 1 µM [inhibitor, full curve, poor fit].
In the case of `CCCn1nnc(NCc2ccc(Cl)cc2Cl)n1`, the “activity change, negative = inhibition” value is reported as inactive: 7.46%.
With `CN1C2C=C3C(C#N)=C(N)C(C#N)(C#N)C(c4ccc(Br)cc4)C3C1CC2` (stereo not drawn) the Potency was inconclusive: 44.7 µM [inhibitor, partial curve, poor fit].
For `CN(c1ccccc1)S(=O)(=O)c1cccc(C(=O)NC2CCCCC2)c1`, the “activity change, negative = inhibition” value was inactive: -13.2%.
In the case of `Cc1cc(C)cc(C(=O)Nc2ccc(N3CCCC3)cc2)c1`, the Potency is reported as inconclusive: 79.4 µM [inhibitor, single point].
For `CCc1nc2c(OCC=C(C)C)cccn2c1N(C)C(=O)c1ccc(OC)cc1`, the “activity change, negative = inhibition” value was inactive: 1.98%.
For `CCCCN(C)CC1CCN(C(=O)Nc2ccc(F)cc2)CC1`, the “activity change, negative = inhibition” value was inactive: -2.32%.
In the case of `COC(=O)/C=C/c1c(C)nc(NCc2ccccc2)nc1Cl`, the Potency is reported as inconclusive: 31.6 µM [inhibitor, partial curve, poor fit].
In the case of `O=C(NCCc1c[nH]c2ccccc12)c1ccc2c(c1)OCO2`, the “activity change, negative = inhibition” value is reported as inactive: -23.7%.
For `Cc1c(-c2ccccc2)oc2c(C(=O)Nc3ccc(C(N)=O)cc3)cccc2c1=O`, the Potency was inconclusive: 8.91 µM [inhibitor, full curve].
With `CCCCSCc1ccc(C(=O)O)o1` the Potency was inconclusive: 50.1 µM [inhibitor, partial curve, poor fit].
`CS(=O)(=O)c1ccc(C(=O)OCC(=O)NC(=O)C2COc3ccccc3O2)cc1[N+](=O)[O-]` (stereo not drawn) was tested, and the Potency was inconclusive: 39.8 µM [inhibitor, partial curve].
In the case of `CC(C)n1c(=S)[nH]c2ccccc2c1=O`, the Potency is reported as inconclusive: 44.7 µM [inhibitor, partial curve, poor fit].
In the case of `COc1ccc(C(=O)OCc2nnc(-c3ccccc3)o2)cc1S(=O)(=O)N1CCCCC1C` (stereo not drawn), the “activity change, negative = inhibition” value is reported as inactive: 9.4%.
`COCCn1c(SCC(=O)N2CCCCC2)nc2cccnc21` was tested, and the Potency was inconclusive: 141 µM [inhibitor, partial curve, poor fit].
For `O=[N+]([O-])c1ccc(C(O)CN=Cc2ccc(O)cc2O)cc1` (stereo not drawn), the Potency was inconclusive: 50.1 µM [inhibitor, partial curve, poor fit].
`CC1(C)ON(C2CCCCC2)[C@H]2c3nc4ccccc4n3C[C@H]21` was tested, and the “activity change, negative = inhibition” value was inactive: -2.31%.
In the case of `Cc1cc2c(c(=O)n1Cc1ccc3c(c1)OCO3)C(c1ccccc1Cl)C(C#N)=C(N)O2` (stereo not drawn), the “activity change, negative = inhibition” value is reported as inactive: 3.19%.
For `CCOc1ccc(OCC)c(NC(=O)c2cnc3c(-c4ccccc4)c(C)nn3c2C)c1`, the Potency was inconclusive: 56.2 µM [inhibitor, partial curve, poor fit].
With `Cc1cccc(-c2nnc(SCc3nc4ccccc4[nH]3)n2Cc2ccco2)c1` the “activity change, negative = inhibition” value was inactive: 361%.
`CCOC(=O)CN(C)C(=O)CCc1nnc(-c2ccc(-c3ccccc3)cc2)o1` was tested, and the Potency was inconclusive: 141 µM [inhibitor, partial curve, poor fit].
For `CCOc1ccc(C=Nc2ccc(N(C)C)cc2)cc1`, the Potency was active: 31.6 µM.
With `N#Cc1ccc(/C=N/Nc2cccc(Cl)c2)cc1` the Potency was active: 2.51 µM.
With `O=C(NCCc1cccc(F)c1)C1CCN(S(=O)(=O)c2ccc(F)cc2)CC1` the Potency was inconclusive: 35.5 µM [inhibitor, single point].
In the case of `COC(=O)c1sc2cccc(F)c2c1S(=O)(=O)N1CCN(c2cc(C)ccc2C)CC1`, the Potency is reported as inconclusive: 44.7 µM [inhibitor, partial curve, poor fit].
In the case of `CCOC(=O)N(C)OC(=O)Nc1ccc(Cl)c(Cl)c1`, the Potency is reported as inconclusive: 35.5 µM [inhibitor, partial curve].
In the case of `COc1ccc(OC)c(NC(=O)c2c(NC(=O)CCC(=O)O)sc3c2CCCCC3)c1`, the Potency is reported as inconclusive: 17.8 µM [inhibitor, partial curve, poor fit].
`Clc1nnc(NN=C2CCCC2)c2ccccc12` was tested, and the Potency was inconclusive: 44.7 µM [inhibitor, partial curve, poor fit].
For `O=C(CNC(=O)CNC(=O)c1ccc(Cl)cc1Cl)NCc1cccc(Cl)c1`, the Potency was inconclusive: 79.4 µM [inhibitor, partial curve, poor fit].
In the case of `CC(C)(C=O)Cc1cc(C(C)(C)C)c(O)c(C(C)(C)C)c1`, the Potency is reported as inconclusive: 35.5 µM [inhibitor, single point].
`Oc1c(C(c2cccs2)N2CCN(c3cccc(Cl)c3)CC2)sc2ncnn12` (stereo not drawn) was tested, and the “activity change, negative = inhibition” value was inactive: 22.9%.
For `O=C(N1CCCC1)N1CCN(c2ccc(Cl)nn2)C(=O)C1`, the activity change, negative = inhibition was inactive: 0.353% [at 6.33 µM].
For `CCn1nc(C(=O)Nc2ccc(Cl)cc2C)c2ccccc2c1=O`, the “activity change, negative = inhibition” value was inactive: -50.2%.
With `c1ccc(-c2ccc(SCc3cccnc3)nn2)nc1` the Potency was inconclusive: 100 µM [inhibitor, single point].
For `CC(=O)Nc1sc(C)c(C)c1C(=O)OCC(=O)NCc1ccc(F)cc1`, the Potency was inconclusive: 126 µM [inhibitor, partial curve, poor fit].
`CC1=C2CCC[C@]3(C)CCOC23C=CC1=O` (stereo partly drawn) was tested, and the Potency was inconclusive: 89.1 µM [inhibitor, single point].
With `NNc1ccc(S(=O)(=O)O)cc1` the Potency was inconclusive: 11.2 µM [inhibitor, full curve].
`CN1CCOc2c(C(=O)NCCN3CCNC3=O)cc(-c3cccc4[nH]ccc34)cc21` was tested, and the “activity change, negative = inhibition” value was inactive: -6.49% [at 176 µM].
In the case of `NC(=O)CC(NC(=O)Cc1ccc(Br)cc1)c1ccc(N2CCC(Cc3ccccc3)CC2)c([N+](=O)[O-])c1` (stereo not drawn), the Potency is reported as inconclusive: 1.58 µM [inhibitor, full curve, poor fit].
`COCCN1CCCN(C(=O)C2CCCCC2)c2ccccc21` was tested, and the Potency was inconclusive: 44.7 µM [inhibitor, partial curve].
